From PubChem BioAssay AID588590 (National Center for Advancing Translational Sciences (NCATS), 2011)
Hit rate of the full screen: of about 390,000 compounds, about 4,000 (1%) were called active. The inconclusive results got no clear call from the source; some entries with a clear call stand among them for comparison. Calls come from the whole dose curve; as a rule, active = well fitted inhibition curve with a large enough effect; inconclusive = small, poorly fitted or top-dose-only effect, or another doubt; inactive = no such curve, though single readings can be large or run the other way. Where the call is inconclusive, the potency comes from a doubtful curve fit.

Protein sequences, listed by entry. Tags and fused reporters are not part of them. Lines headed by an entry give the natural chain unless they say otherwise; changes in a name come on top.
UniProt Q9UNA4: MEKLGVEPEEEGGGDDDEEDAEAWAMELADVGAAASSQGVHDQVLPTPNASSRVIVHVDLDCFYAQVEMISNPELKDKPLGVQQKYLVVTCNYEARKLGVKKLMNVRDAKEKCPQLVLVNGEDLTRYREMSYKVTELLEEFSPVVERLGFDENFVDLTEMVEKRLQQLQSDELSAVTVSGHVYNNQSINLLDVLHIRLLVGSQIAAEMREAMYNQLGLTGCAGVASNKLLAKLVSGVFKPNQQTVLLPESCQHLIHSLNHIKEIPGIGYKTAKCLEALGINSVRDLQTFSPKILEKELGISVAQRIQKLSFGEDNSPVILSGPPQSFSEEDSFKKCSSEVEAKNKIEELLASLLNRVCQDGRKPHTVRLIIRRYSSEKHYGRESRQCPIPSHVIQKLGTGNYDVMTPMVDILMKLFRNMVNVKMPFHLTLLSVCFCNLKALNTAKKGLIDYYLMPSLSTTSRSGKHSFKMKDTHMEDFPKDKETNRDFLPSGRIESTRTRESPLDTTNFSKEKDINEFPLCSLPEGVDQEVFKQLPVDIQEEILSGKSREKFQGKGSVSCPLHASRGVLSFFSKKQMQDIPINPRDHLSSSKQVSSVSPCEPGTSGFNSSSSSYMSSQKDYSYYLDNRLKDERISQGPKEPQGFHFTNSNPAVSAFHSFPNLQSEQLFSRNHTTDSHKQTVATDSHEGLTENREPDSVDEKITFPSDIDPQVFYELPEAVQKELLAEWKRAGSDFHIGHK

Molecular target: DNA polymerase iota (Homo sapiens) (UniProt Q9UNA4)
Test: qHTS for Inhibitors of Polymerase Iota
Settings: Pol iota fluorescent replication assay, 10 min; series mostly up to 115 µM; activity, negative = inhibition: at the top concentration
Outline: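 Fluorescent replication assay read twice, at 0 min and 10 min after adding 50 nM (final) substrate. Enzyme (10 nM) and compounds were first incubated 15 min at room temperature; enzyme-free buffer wells were negative controls.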
Potency is the fitted concentration of half-maximal effect.

Row | SMILES | Potency | activity, negative = inhibition
1 | COc1ccc(N2C(=O)NC(=O)/C(=C\c3cn(C)c4ccccc34)C2=O)cc1 | inconclusive: 1.41 µM [inhibitor, full curve] | 
2 | O=C(COc1ccc2ccccc2c1)N1CCN(Cc2c[nH]c3ccccc23)CC1 | inconclusive: 39.8 µM [inhibitor, single point] | 
3 | O=C(c1ccccc1F)N1CCC2(CC1)OCCO2 | inconclusive: 39.8 µM [inhibitor, single point] | 
4 | O=C1CC(=O)N(c2ccccc2F)C(=O)N1 |  | inactive: -22.4%
5 | CN(N=O)c1ccc(O)c(O)c1 | active: 0.794 µM | 
6 | CC(Cl)(Cl)/C(=N/P(=S)(N1CCOCC1)N1CCOCC1)N1CCOCC1 | inconclusive: 100 µM [inhibitor, partial curve, poor fit] | 
7 | O=c1c2ccccc2nc(/C=C/c2ccccc2)n1-c1ccccc1F |  | inactive: -4.27%
8 | CCOc1cccc(N2C(=O)/C(=C/c3ccco3)C(=O)NC2=S)c1 | inconclusive: 8.91 µM [inhibitor, partial curve, poor fit] | 
9 | O=C1NC(=O)C(=Cc2csc3ccccc23)C(=O)N1 | inconclusive: 39.8 µM [inhibitor, single point] | 
10 | CN1C(=O)C(=Cc2ccccc2OS(=O)(=O)c2ccccc2)C(=O)N(C)C1=O | inconclusive: 22.4 µM [inhibitor, partial curve, poor fit] | 
11 | CCOc1cc(C=C2C(=O)NC(=O)NC2=O)ccc1OS(=O)(=O)c1ccccc1 |  | inactive: -63.1%
12 | O=C(c1cc2cc(Cl)ccc2[nH]1)N1CCC2(CC1)OCCO2 | inconclusive: 39.8 µM [inhibitor, single point] | 
13 | COc1cc(/C=C/[N+](=O)[O-])ccc1O | active: 31.6 µM | 
14 | COC(=O)C1=C(c2ccc(OC(F)(F)F)cc2)C[C@@H]2CC[C@H]1N2C(=O)N1CCCCC1 | inconclusive: 89.1 µM [inhibitor, single point] | 
15 | CN1C(=O)NC(=O)/C(=C\C=C\c2ccccc2[N+](=O)[O-])C1=O | active: 14.1 µM | 
16 | Cc1ccc(/C=C2\C(=O)NC(=S)N(c3ccc(F)cc3)C2=O)o1 | inconclusive: 7.08 µM [inhibitor, partial curve, poor fit] | 
17 | C=CCOC(=O)C1C(C(=O)O)C2(Cl)C(Cl)=C(Cl)C1(Cl)C2(Cl)Cl (stereo not drawn) | inconclusive: 22.4 µM [inhibitor, partial curve] | 
18 | O=[N+]([O-])c1ccc(-[n+]2c(-c3ccccc3)cc(-c3ccccc3)cc2-c2ccccc2)cc1 | inconclusive: 35.5 µM [inhibitor, single point] | 
19 | O=C1N=NC2=C1c1c3ccccc3c(O)n1CC2 | inconclusive: 31.6 µM [inhibitor, single point] | 
20 | COc1ccc(Cn2c(=O)oc3ccccc32)cc1F |  | inactive: 162%
21 | O=C1NC(=O)C(=Cc2ccccc2Oc2ccc(F)cc2)C(=O)N1 |  | inactive: 111%
22 | O=c1[nH]c(=S)[nH]c(O)c1N=Nc1cc(S(=O)(=O)Nc2ccc(Cl)cc2)ccc1Cl | inconclusive: 15.8 µM [inhibitor, partial curve, poor fit] | 

Row | SMILES | Potency | activity, negative = inhibition
23 | CN(C)CC1Oc2ccccc2OC1(O)c1ccccc1 (stereo not drawn) | inconclusive: 5.01 µM [inhibitor, partial curve, poor fit] | 
24 | COc1ccc(CN2C(=O)NC(=O)/C(=C\c3ccco3)C2=O)cc1 | inconclusive: 8.91 µM [inhibitor, full curve, poor fit] | 
25 | NCC(=O)c1ccc(Br)cc1 |  | inactive: -15.8%
26 | CCOC(=O)c1cc2c(cn1)[C@@H](CCO)NC2 | inconclusive: 39.8 µM [inhibitor, partial curve, poor fit] | 
27 | COc1ccc(CCNCC2CCCO2)cc1 (stereo not drawn) |  | inactive: 10.4%
28 | COc1ccc2c(c1)CC1(CN2C)C(=O)NC(=O)N(CCc2ccccc2)C1=O (stereo not drawn) | inconclusive: 25.1 µM [inhibitor, single point] | 
29 | COc1cc2c(cc1OC)-c1c(OC)c(OC)c(OC)c3ccnc(c13)C2=O | inconclusive: 14.1 µM [inhibitor, full curve] | 
30 | CCOC(=O)C1=Nc2ccccc2/C1=C\c1c(O)n(C)c(=O)n(C)c1=O | inconclusive: 3.16 µM [inhibitor, partial curve, poor fit] | 
31 | CC1OC(O[C@H]2C[C@@H](O)[C@]3(CO)[C@H]4[C@H](O)C[C@]5(C)[C@@H](C6=CC(=O)OC6)CC[C@]5(O)[C@@H]4CC[C@]3(O)C2)C(O)C(O)C1O (stereo partly drawn) |  | inactive: 2.99%
32 | NCCCN1CCN(c2ccccc2)CC1 | inconclusive: 100 µM [inhibitor, single point] | 
33 | Cc1cc(C)[n+](C2C3CC4CC(C3)CC2C4)o1 (stereo not drawn) |  | inactive: 85.3%
34 | CCOC(=O)c1c(-c2ccc(OC)cc2)oc2ccc(OC(=O)N(C)C)cc12 | inconclusive: 31.6 µM [inhibitor, single point] | 
35 | C[C@H](N)CN1CCc2ccc(Br)cc21 | inactive | 
36 | CCN(CCCNS(=O)(=O)c1ccc2c(c1)oc(=O)n2C)c1cccc(C)c1 | inconclusive: 89.1 µM [inhibitor, partial curve, poor fit] | 
37 | CCCCN1C(=O)/C(=C\c2ccco2)C(=O)N(CCc2ccccc2)C1=O | inconclusive: 17.8 µM [inhibitor, full curve, poor fit] | 
38 | CCOC(=O)[C@@]1(C#N)[C@@H]2C=CC(C(N)=O)=CN2[C@@H](C(N)=O)[C@@H]1c1cccc(Cl)c1 | inconclusive: 6.31 µM [inhibitor, partial curve, poor fit] | 
39 | CNCC[C@@H](Oc1ccc(C(F)(F)F)cc1)c1ccccc1 | inactive | 
40 | C=Cc1cc(OC)c2c(c1)c(=O)oc1c2cc(OC)c2c(O)ccc(C3OC(C)C(O)C(C)(O)C3O)c21 (stereo not drawn) | active: 2.51 µM | 
41 | O=c1nc(/C=C/c2ccc(Cl)cc2Cl)cc(C(F)(F)F)[nH]1 | inconclusive: 39.8 µM [inhibitor, single point] | 
42 | C#CC[N+]1(C)[C@@H]2CC(OC(=O)C(CO)c3ccccc3)C[C@H]1C(O)C2 (stereo partly drawn) | inconclusive: 20 µM [inhibitor, full curve, poor fit] | 
43 | O=[N+]([O-])c1cc(O)c(O)c([N+](=O)[O-])c1 | inconclusive: 56.2 µM [inhibitor, partial curve, poor fit] | 

Compounds listed so far that contain bromine (two):
Row | SMILES | Potency | activity, negative = inhibition
25 | NCC(=O)c1ccc(Br)cc1 |  | inactive: -15.8%
35 | C[C@H](N)CN1CCc2ccc(Br)cc21 | inactive | 

Some of the entries so far, in markdown.

| Row | SMILES | Potency | activity, negative = inhibition |
| --- | --- | --- | --- |
| 26 | CCOC(=O)c1cc2c(cn1)[C@@H](CCO)NC2 | inconclusive: 39.8 µM [inhibitor, partial curve, poor fit] |  |
| 29 | COc1cc2c(cc1OC)-c1c(OC)c(OC)c(OC)c3ccnc(c13)C2=O | inconclusive: 14.1 µM [inhibitor, full curve] |  |
